NP40-soluble protein abundance data for 17 targets are collected here from the supplement of paper PMC6411743.

Chains of the proteins cited; added tags and fusions are not shown. Lines headed by an entry give the natural chain unless they say otherwise; changes in a name come on top.
UniProt Q9UIC8: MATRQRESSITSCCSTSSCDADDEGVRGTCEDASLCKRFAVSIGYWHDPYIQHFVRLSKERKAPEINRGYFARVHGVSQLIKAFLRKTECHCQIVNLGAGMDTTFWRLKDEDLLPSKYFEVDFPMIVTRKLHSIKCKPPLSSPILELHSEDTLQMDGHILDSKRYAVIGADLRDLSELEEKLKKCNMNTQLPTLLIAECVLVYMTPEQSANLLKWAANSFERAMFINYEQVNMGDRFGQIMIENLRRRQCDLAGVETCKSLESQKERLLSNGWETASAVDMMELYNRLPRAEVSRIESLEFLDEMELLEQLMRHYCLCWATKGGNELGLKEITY
UniProt Q9UHB7: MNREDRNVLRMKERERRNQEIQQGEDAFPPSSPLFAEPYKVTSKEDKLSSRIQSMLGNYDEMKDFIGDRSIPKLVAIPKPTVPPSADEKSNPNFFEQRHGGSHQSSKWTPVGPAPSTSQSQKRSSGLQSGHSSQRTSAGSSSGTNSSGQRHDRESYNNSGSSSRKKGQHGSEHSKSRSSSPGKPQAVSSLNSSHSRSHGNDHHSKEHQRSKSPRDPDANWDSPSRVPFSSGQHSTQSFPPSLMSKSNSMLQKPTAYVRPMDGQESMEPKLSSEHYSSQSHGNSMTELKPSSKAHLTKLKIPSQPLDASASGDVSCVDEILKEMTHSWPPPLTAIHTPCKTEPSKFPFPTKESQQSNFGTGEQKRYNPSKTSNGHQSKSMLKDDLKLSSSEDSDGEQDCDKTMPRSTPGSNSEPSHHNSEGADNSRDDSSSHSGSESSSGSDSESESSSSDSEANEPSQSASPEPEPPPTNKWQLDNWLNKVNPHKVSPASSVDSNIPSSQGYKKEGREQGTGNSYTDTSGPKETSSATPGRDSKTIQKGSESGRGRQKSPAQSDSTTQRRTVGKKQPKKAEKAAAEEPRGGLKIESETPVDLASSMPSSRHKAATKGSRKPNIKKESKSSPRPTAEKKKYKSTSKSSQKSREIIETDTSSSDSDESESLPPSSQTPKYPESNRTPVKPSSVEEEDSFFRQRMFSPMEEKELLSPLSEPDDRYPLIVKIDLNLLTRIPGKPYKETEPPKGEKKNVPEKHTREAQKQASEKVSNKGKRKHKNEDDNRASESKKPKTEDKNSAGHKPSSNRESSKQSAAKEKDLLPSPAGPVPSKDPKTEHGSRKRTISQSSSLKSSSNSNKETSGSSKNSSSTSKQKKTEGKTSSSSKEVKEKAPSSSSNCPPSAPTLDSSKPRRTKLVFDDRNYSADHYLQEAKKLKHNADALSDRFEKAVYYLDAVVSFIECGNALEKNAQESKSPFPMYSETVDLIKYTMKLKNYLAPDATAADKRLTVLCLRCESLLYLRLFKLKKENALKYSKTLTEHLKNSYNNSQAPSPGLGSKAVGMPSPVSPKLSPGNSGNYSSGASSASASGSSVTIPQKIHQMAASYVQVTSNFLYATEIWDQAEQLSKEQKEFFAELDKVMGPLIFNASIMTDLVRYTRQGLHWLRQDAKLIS
UniProt Q9UN37: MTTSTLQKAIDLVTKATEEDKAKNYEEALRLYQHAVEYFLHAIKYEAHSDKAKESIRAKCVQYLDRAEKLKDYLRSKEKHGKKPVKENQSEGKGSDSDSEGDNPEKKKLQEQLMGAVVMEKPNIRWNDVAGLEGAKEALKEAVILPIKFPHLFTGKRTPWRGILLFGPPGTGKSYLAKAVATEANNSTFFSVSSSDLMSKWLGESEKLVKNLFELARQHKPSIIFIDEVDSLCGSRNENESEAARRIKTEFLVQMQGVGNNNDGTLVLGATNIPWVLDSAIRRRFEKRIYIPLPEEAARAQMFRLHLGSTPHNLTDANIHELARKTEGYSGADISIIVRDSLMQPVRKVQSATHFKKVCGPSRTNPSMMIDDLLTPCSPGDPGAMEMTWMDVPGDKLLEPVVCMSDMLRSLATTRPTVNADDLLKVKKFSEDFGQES
UniProt Q9UKX7: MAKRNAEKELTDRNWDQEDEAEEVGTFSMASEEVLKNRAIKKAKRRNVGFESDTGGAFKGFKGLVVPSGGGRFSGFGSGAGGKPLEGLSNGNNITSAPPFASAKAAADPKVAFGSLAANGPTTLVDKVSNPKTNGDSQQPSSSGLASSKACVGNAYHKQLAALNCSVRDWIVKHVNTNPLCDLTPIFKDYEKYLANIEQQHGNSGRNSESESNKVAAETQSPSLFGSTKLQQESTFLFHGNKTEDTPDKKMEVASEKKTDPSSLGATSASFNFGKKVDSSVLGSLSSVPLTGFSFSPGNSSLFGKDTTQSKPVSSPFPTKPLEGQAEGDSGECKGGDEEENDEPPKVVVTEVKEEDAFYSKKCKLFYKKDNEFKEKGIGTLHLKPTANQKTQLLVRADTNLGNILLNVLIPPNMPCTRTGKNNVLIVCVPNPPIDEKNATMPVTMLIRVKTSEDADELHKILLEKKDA
UniProt Q9Y294, whole entry: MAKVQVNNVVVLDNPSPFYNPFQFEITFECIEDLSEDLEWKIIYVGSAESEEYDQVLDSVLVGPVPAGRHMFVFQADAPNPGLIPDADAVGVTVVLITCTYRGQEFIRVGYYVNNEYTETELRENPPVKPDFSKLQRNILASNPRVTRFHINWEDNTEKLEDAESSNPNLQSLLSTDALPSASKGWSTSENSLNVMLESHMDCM
UniProt Q9UMN6, whole entry: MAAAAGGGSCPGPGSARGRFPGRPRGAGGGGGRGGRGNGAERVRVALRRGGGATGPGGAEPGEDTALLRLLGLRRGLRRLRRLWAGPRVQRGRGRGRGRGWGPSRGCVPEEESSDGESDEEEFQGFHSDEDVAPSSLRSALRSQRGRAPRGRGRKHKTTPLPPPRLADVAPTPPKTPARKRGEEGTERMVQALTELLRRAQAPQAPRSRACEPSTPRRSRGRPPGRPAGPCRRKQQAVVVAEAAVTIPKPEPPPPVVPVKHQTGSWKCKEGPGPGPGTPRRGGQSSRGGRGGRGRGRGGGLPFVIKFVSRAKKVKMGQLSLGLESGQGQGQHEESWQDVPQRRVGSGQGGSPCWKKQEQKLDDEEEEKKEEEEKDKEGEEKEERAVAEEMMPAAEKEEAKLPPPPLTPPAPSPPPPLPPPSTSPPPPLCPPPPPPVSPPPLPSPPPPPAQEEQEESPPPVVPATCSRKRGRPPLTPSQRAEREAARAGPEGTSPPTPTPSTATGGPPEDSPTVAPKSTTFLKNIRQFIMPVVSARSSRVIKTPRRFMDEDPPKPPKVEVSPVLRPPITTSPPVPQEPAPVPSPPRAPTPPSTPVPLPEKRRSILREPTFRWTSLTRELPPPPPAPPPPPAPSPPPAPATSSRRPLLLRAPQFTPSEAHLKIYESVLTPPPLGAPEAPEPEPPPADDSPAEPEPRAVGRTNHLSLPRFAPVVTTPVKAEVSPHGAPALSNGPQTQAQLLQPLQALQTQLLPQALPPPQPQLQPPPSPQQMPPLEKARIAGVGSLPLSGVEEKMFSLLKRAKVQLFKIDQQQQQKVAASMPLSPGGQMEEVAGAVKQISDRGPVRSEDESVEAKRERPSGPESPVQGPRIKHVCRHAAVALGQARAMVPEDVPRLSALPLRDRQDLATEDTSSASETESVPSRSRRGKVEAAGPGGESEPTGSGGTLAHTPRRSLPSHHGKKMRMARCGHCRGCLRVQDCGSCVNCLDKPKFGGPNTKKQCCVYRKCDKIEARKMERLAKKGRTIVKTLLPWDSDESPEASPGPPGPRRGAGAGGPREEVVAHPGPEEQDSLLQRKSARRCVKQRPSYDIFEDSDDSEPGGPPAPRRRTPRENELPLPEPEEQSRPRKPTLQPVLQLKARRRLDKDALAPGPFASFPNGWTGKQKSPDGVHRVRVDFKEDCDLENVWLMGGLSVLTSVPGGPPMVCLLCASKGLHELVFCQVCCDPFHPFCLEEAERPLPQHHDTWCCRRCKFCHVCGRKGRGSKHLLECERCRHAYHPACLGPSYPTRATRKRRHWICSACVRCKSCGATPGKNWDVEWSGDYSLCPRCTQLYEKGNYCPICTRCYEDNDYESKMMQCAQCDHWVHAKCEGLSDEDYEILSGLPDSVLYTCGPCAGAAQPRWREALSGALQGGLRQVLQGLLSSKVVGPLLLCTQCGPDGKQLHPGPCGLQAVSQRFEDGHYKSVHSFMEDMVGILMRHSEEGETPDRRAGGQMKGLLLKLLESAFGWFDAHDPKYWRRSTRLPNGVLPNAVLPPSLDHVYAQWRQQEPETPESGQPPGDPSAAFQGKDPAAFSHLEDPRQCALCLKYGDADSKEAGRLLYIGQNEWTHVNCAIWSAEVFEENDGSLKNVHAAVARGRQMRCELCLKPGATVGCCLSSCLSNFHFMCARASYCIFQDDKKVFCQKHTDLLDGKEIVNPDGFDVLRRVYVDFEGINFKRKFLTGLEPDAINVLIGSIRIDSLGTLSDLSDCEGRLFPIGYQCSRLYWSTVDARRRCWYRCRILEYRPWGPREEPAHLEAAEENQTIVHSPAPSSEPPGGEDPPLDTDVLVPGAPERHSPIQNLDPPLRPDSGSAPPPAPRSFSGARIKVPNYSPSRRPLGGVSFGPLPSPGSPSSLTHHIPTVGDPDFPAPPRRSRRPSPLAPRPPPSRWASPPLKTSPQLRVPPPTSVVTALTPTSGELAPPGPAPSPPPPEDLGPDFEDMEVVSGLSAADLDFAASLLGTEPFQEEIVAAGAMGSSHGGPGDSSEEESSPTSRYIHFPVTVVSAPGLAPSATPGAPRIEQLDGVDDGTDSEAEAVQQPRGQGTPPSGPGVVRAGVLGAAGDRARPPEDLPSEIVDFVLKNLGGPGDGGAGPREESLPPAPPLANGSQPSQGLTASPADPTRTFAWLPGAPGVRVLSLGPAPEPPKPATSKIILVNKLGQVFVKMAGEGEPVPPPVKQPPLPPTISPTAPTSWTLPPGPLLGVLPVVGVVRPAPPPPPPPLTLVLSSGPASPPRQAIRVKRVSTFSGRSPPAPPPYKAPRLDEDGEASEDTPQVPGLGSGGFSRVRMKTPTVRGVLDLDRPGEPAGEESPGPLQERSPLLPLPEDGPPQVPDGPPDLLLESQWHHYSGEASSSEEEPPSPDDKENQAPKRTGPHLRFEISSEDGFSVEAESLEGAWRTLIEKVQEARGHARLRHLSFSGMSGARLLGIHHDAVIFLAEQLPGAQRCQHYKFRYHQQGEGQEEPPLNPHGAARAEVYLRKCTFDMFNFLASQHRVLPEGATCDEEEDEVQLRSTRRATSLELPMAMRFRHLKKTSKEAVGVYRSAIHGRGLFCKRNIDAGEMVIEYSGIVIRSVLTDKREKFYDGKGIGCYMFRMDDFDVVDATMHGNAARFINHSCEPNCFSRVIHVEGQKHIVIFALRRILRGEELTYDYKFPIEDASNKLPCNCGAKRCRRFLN
UniProt Q9UBU6: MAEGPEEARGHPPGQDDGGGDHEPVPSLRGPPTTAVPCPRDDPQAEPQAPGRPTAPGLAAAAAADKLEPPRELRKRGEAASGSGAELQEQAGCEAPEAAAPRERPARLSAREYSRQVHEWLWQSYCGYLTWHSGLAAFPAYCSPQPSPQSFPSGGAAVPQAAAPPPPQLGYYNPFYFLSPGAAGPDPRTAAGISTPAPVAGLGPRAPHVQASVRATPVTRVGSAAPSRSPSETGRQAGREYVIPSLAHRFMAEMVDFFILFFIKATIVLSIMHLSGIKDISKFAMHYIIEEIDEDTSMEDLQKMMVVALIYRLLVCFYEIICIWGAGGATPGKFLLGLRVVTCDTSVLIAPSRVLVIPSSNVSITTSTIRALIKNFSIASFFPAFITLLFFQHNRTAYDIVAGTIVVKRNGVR
UniProt Q9UBE0: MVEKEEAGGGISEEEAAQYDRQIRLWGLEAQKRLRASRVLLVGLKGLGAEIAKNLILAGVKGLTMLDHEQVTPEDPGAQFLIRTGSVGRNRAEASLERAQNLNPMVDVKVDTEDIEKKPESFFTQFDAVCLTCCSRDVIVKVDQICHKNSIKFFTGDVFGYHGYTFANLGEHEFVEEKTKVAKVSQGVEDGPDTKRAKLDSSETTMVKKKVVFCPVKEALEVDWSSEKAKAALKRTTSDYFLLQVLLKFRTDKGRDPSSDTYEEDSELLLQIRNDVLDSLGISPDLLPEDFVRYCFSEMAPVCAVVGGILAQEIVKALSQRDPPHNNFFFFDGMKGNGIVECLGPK
UniProt Q9UL25: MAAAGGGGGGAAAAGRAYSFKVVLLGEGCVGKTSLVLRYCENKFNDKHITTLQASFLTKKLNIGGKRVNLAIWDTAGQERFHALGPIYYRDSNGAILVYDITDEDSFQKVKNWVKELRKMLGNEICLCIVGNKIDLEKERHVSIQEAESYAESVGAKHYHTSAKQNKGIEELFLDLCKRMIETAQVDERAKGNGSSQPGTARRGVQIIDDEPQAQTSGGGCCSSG
UniProt Q9UMS0: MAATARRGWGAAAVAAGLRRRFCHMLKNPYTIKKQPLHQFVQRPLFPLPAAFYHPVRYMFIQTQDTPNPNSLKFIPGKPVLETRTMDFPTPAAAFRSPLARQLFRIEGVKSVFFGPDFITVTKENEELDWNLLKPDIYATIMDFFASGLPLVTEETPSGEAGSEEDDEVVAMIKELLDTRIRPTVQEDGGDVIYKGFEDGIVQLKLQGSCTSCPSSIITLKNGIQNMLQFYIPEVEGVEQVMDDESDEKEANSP

± gives the standard deviation of the averaged measurements. This is a selection; strong and weak results do not stand in their true shares.

Compound in the assay: Nc1ncnc2c1ncn2[C@@H]1O[C@H](COP(=O)(O)OP(=O)(O)OP(=O)(O)O)[C@@H](O)[C@H]1O [adenosine triphosphate]
Briefly: NP40-soluble protein abundance relative to vehicle (solubility fold change) (ratio); higher = more soluble protein in presence of ATP. An outline of the steps:
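Jurkat crude lysate (Dounce-homogenised) was treated with eight concentrations from 0.1 to 10 mM for 10 min at room temperature, then 3 min at 37 °C. It was solubilised with 0.8% NP40 and benzonase (60 min, 4 °C) and ultracentrifuged, and the supernatant was TMT-labelled for LC-MS/MS. Intensities were vsn-normalised, and the value is the fold change against the NP40-processed vehicle per replicate, from three independent experiments.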

On to YEATS2 (UniProt Q9ULM3), for which the NP40-soluble protein abundance reads like this: (concentration: 1mM) 1.14 ± 0.11; (concentration: 2mM) 1.09 ± 0.049; (concentration: 4mM) 1.14 ± 0.08; (concentration: 6mM) 1.1 ± 0.05; (concentration: 8mM) 1.36 ± 0.14; (concentration: 10mM) 1.22 ± 0.11.

As for LCMT1 (UniProt Q9UIC8), the NP40-soluble protein abundance runs as follows: (concentration: 1mM) 0.987 ± 0.045; (concentration: 2mM) 0.987 ± 0.074; (concentration: 4mM) 0.996 ± 0.068; (concentration: 6mM) 0.975 ± 0.11; (concentration: 8mM) 1.01 ± 0.083; (concentration: 10mM) 0.976 ± 0.048.

As for AFF4 (UniProt Q9UHB7), the NP40-soluble protein abundance amounted to 1.1 ± 0.046 (concentration: 1mM); 1.15 ± 0.015 (concentration: 2mM); 1.18 ± 0.029 (concentration: 4mM); 1.21 ± 0.031 (concentration: 6mM); 1.19 ± 0.016 (concentration: 8mM); 1.24 ± 0.042 (concentration: 10mM).

Consider XPO7 (UniProt Q9UIA9), for which the NP40-soluble protein abundance (concentration: 1mM) was determined as 0.962 ± 0.11; the NP40-soluble protein abundance (concentration: 2mM) worked out at 0.986 ± 0.068; the NP40-soluble protein abundance (concentration: 4mM) worked out at 0.951 ± 0.025; the NP40-soluble protein abundance (concentration: 6mM) was 0.904 ± 0.11; the NP40-soluble protein abundance (concentration: 8mM) is 0.9538 ± 0.0081; the NP40-soluble protein abundance (concentration: 10mM) amounted to 0.98 ± 0.019.

As for VPS4A (UniProt Q9UN37), the NP40-soluble protein abundance by setting is: (concentration: 1mM) 1.17 ± 0.03; (concentration: 2mM) 1.19 ± 0.04; (concentration: 4mM) 1.17 ± 0.017; (concentration: 6mM) 1.26 ± 0.013; (concentration: 8mM) 1.17 ± 0.054; (concentration: 10mM) 1.17 ± 0.073.

Turning to UniProt Q9UKX7 and related entries, the NP40-soluble protein abundance is, setting by setting: (concentration: 1mM) 1.09 ± 0.047; (concentration: 2mM) 1.09 ± 0.018; (concentration: 4mM) 1.08 ± 0.026; (concentration: 6mM) 1.15 ± 0.033; (concentration: 8mM) 1.09 ± 0.014; (concentration: 10mM) 1.08 ± 0.021.

As for ASF1A (UniProt Q9Y294), the NP40-soluble protein abundance is, setting by setting: (concentration: 1mM) 1.14 ± 0.054; (concentration: 2mM) 1.08 ± 0.03; (concentration: 4mM) 1.07 ± 0.053; (concentration: 6mM) 1.081 ± 0.0092; (concentration: 8mM) 1.09 ± 0.089; (concentration: 10mM) 1.02 ± 0.03.

With UniProt Q9UPP1 and related entries, the NP40-soluble protein abundance is, setting by setting: (concentration: 1mM) 1.05 ± 0.028; (concentration: 2mM) 1.06 ± 0.026; (concentration: 4mM) 1.07 ± 0.038; (concentration: 6mM) 1.07 ± 0.044; (concentration: 8mM) 1.11 ± 0.012; (concentration: 10mM) 1.15 ± 0.033.

KMT2B (UniProt Q9UMN6): the NP40-soluble protein abundance reads like this: (concentration: 1mM) 0.993 ± 0.082; (concentration: 2mM) 1.01 ± 0.015; (concentration: 4mM) 1.07 ± 0.071; (concentration: 6mM) 1.07 ± 0.07; (concentration: 8mM) 1.02 ± 0.012; (concentration: 10mM) 1.03 ± 0.032.

With FAM8A1 (UniProt Q9UBU6), the NP40-soluble protein abundance is, setting by setting: (concentration: 1mM) 0.974 ± 0.065; (concentration: 2mM) 1 ± 0.037; (concentration: 4mM) 0.966 ± 0.051; (concentration: 6mM) 1.01 ± 0.057; (concentration: 8mM) 0.978 ± 0.032; (concentration: 10mM) 0.974 ± 0.016.

Take ZNHIT2 (UniProt Q9UHR6): the NP40-soluble protein abundance (concentration: 1mM) is 0.909 ± 0.027; the NP40-soluble protein abundance (concentration: 2mM) turned out to be 0.965 ± 0.12; the NP40-soluble protein abundance (concentration: 4mM) was found to be 0.944 ± 0.12; the NP40-soluble protein abundance (concentration: 6mM) came out at 0.971 ± 0.048; the NP40-soluble protein abundance (concentration: 8mM) was found to be 0.983 ± 0.086; the NP40-soluble protein abundance (concentration: 10mM) amounted to 0.941 ± 0.035.

With UniProt Q9UNM6 and related entries, the NP40-soluble protein abundance reads like this: (concentration: 1mM) 0.946 ± 0.062; (concentration: 2mM) 0.879 ± 0.029; (concentration: 4mM) 0.845 ± 0.017; (concentration: 6mM) 0.842 ± 0.025; (concentration: 8mM) 0.883 ± 0.0098; (concentration: 10mM) 0.845 ± 0.044.

Consider UniProt Q9UDY8 and related entries, for which the NP40-soluble protein abundance by setting is: (concentration: 1mM) 1.05 ± 0.072; (concentration: 2mM) 1.04 ± 0.096; (concentration: 4mM) 1.02 ± 0.059; (concentration: 6mM) 0.991 ± 0.061; (concentration: 8mM) 1.04 ± 0.012; (concentration: 10mM) 1.02 ± 0.032.

On to SAE1 (UniProt Q9UBE0), for which the NP40-soluble protein abundance is, setting by setting: (concentration: 1mM) 0.988 ± 0.031; (concentration: 2mM) 0.991 ± 0.028; (concentration: 4mM) 0.929 ± 0.019; (concentration: 6mM) 0.965 ± 0.067; (concentration: 8mM) 0.949 ± 0.019; (concentration: 10mM) 0.958 ± 0.037.

UniProt Q9UH99: the NP40-soluble protein abundance by setting is: (concentration: 1mM) 1.18 ± 0.023; (concentration: 2mM) 1.163 ± 0.0095; (concentration: 4mM) 1.151 ± 0.0031; (concentration: 6mM) 1.17 ± 0.013; (concentration: 8mM) 1.16 ± 0.028; (concentration: 10mM) 1.173 ± 0.011.

As for RAB21 (UniProt Q9UL25), the NP40-soluble protein abundance turned out to be 0.9106 ± 0.0053 (concentration: 1mM); 0.933 ± 0.016 (concentration: 2mM); 0.922 ± 0.039 (concentration: 4mM); 0.889 ± 0.042 (concentration: 6mM); 0.891 ± 0.015 (concentration: 8mM); 0.942 ± 0.011 (concentration: 10mM).

On to UniProt Q9UMS0 and related entries, for which the NP40-soluble protein abundance was determined as 0.951 ± 0.031 (concentration: 1mM); 0.97 ± 0.014 (concentration: 2mM); 0.947 ± 0.015 (concentration: 4mM); 0.983 ± 0.04 (concentration: 6mM); 0.919 ± 0.048 (concentration: 8mM); 0.875 ± 0.067 (concentration: 10mM).
